# From PubChem BioAssay AID330 (DTP/NCI, 2004)
# The list is a part of this screen's results and no random one: it is rich in T/C values a quarter to a half above the control, in often repeated tests (any T/C) and in doses without a T/C. Further doses and runs are listed elsewhere. T/C: endpoint of the treated group in % of that of the vehicle group. Some entries give survivors of the animals treated and no T/C: the source holds a T/C of zero for them, seemingly a mark for toxic or unscored doses. Some survivor counts are full or nearly so, which does not show that the dose was tolerated: the source hardly ever lists a survival T/C far under the control, and the zero likely stands for such cases as well. Counts of survivors are from the toxicity check (mostly the fifth day) where no day follows; animals may have died later. Schedule codes are those of the source, read here as Q, the interval in days (D) or hours (H), X, the number of doses. Some entries hold several experiments; the values are given in rising order. Additions like (4×) count equal records among those shown. Where survival is the endpoint, the PubChem record calls one and a half times the control and up active, and a quarter to a half above the control has no call in these data; cut-offs in other NCI protocols can differ. Some T/C values are followed by the survivors on the day toxicity was checked, most often the fifth; where none is given, no animal had died by that day.
# Tested on: P388 leukemia ip, CD2F1 mice, survival T/C
# Assay: NCI In Vivo Anticancer Drug Screen. Data for tumor model P388 Leukemia (intraperitoneal) in CD2F1 (CDF1) mice
# Settings: T/C endpoint: median survival time, higher T/C = longer survival
# [1] = dose: 100.0 mg/kg/injection, schedule: Q01DX005 (ip), vehicle: saline with Tween-80
# [2] = dose: 200.0 mg/kg/injection, schedule: Q01DX005 (ip), vehicle: saline with Tween-80
# [3] = dose: 50.0 mg/kg/injection, schedule: Q01DX009 (ip), vehicle: saline
# [4] = dose: 200.0 mg/kg/injection, schedule: Q01DX009 (ip), vehicle: suspension in saline
# [5] = dose: 240.0 mg/kg/injection, schedule: Q01DX005 (ip), vehicle: saline with Tween-80
# [6] = dose: 25.0 mg/kg/injection, schedule: Q01DX009 (ip), vehicle: saline with Tween-80
# [7] = dose: 50.0 mg/kg/injection, schedule: Q01DX009 (ip), vehicle: saline with Tween-80
# [8] = dose: 100.0 mg/kg/injection, schedule: Q01DX009 (ip), vehicle: saline with Tween-80
# [9] = dose: 200.0 mg/kg/injection, schedule: Q01DX009 (ip), vehicle: saline with Tween-80
# [10] = dose: 100.0 mg/kg/injection, schedule: Q01DX009 (ip), vehicle: Klucel (hydroxypropylcellulose) (HPC)
# [11] = dose: 100.0 mg/kg/injection, schedule: Q01DX009 (ip), vehicle: saline
# [12] = dose: 200.0 mg/kg/injection, schedule: Q01DX009 (ip), vehicle: Klucel (hydroxypropylcellulose) (HPC)
# [13] = dose: 200.0 mg/kg/injection, schedule: Q01DX009 (ip), vehicle: saline
# [14] = dose: 400.0 mg/kg/injection, schedule: Q01DX009 (ip), vehicle: Klucel (hydroxypropylcellulose) (HPC)
# [15] = dose: 400.0 mg/kg/injection, schedule: Q01DX009 (ip), vehicle: saline
# [16] = dose: 400.0 mg/kg/injection, schedule: Q04DX003 (ip), vehicle: saline with Tween-80
# [17] = dose: 50.0 mg/kg/injection, schedule: Q01DX009 (ip), vehicle: Klucel (hydroxypropylcellulose) (HPC)
smiles,measurement,setting,value
c1cc(Nc2ccc(Nc3ccc(CN4CCCCC4)cc3)cc2)ccc1CN1CCCCC1,survivor count,"dose: 200.0 mg/kg/injection, schedule: Q01DX009 (ip), vehicle: saline + Tween-80 + alcohol",2 of 6
same,survivor count,"dose: 400.0 mg/kg/injection, schedule: Q01DX009 (ip), vehicle: saline + Tween-80 + alcohol",0 of 6
CCCCN(CCCC)C(=N)OC1CCCCC1,survivor count,"dose: 50.0 mg/kg/injection, schedule: Q01DX005 (ip), vehicle: saline with Tween-80",0 of 6
same,survivor count,[1],0 of 6
same,survivor count,[2],0 of 6
[CH3][Sn]([CH3])([N]=C=S)[N]=C=S,T/C,"dose: 25.0 mg/kg/injection, schedule: Q01DX009 (ip), vehicle: saline",135 % of control
same,T/C,[3],138 % of control [5 of 6 alive]
same,survivor count,"dose: 100.0 mg/kg/injection, schedule: Q01DX009 (ip), vehicle: suspension in saline",3 of 6
same,survivor count,[4],1 of 6
S=C1CCCCCN1,survivor count,"dose: 100.0 mg/kg/injection, schedule: Q01DX005 (ip), vehicle: Klucel (hydroxypropylcellulose) (HPC)",0 of 5
same,survivor count,"dose: 200.0 mg/kg/injection, schedule: Q01DX005 (ip), vehicle: Klucel (hydroxypropylcellulose) (HPC)",0 of 5
C=Cc1cc(=O)oc2cc(OC)ccc12,survivor count,[1],2 of 6
same,survivor count,[2],0 of 6
FS(F)(F)(F)(F)c1cccc(NC(=S)SCc2ccc(Cl)cc2)c1,survivor count,[3],3 of 6
CCOC(=O)C(Cc1ccc(O)cc1)NC(=O)c1cc2c(cn1)[nH]c1ccccc12 (stereo not given),T/C,[5],125 % of control
Cn1c2ccccc2c2nnc(N/N=C/c3ccccn3)nc21,T/C,"dose: 400.0 mg/kg/injection, schedule: Q04DX002 (ip), vehicle: saline with Tween-80",127 % of control
CCOC(=O)C(Cc1ccccc1)NO (stereo not given),survivor count,[6],3 of 6
same,survivor count,[7],6 of 6
same,survivor count,[8],6 of 6
same,survivor count,[9],4 of 6
COc1ccc2cc3[n+](c(CC(=O)O)c2c1OC)CCc1cc2c(cc1-3)OCO2,T/C,"dose: 20.0 mg/kg/injection, schedule: Q01DX009 (ip), vehicle: water",132 % of control [5 of 6 alive]
CCN(CC)CCC(CNc1c2ccc(Cl)cc2nc2ccc(OC)cc12)c1ccccc1 (stereo not given),survivor count,[1],0 of 5
same,survivor count,[2],0 of 5
N=C(N)SCc1ccc2nsnc2c1,survivor count,[1],2 of 6
same,survivor count,[2],0 of 6
O=C(Nc1ccccc1)Oc1ccc[nH]c1=O,T/C,[3],125 % of control
same,T/C,[10],126 % of control
same,T/C,[11],130 and 132 % of control
same,survivor count,[12],2 of 6 and 3 of 6
same,survivor count,[13],6 of 6
same,survivor count,[14],0 of 6
same,survivor count,[15],0 of 6
O=C1C=C(Br)C(=O)C(Br)=C1,survivor count,"dose: 12.5 mg/kg/injection, schedule: Q01DX009 (ip), vehicle: distilled water + Tween-80",3 of 5 and 5 of 6
same,survivor count,"dose: 25.0 mg/kg/injection, schedule: Q01DX009 (ip), vehicle: distilled water + Tween-80",2 of 6 and 2 of 5
same,survivor count,"dose: 50.0 mg/kg/injection, schedule: Q01DX009 (ip), vehicle: distilled water + Tween-80",0 of 5
same,survivor count,"dose: 100.0 mg/kg/injection, schedule: Q01DX009 (ip), vehicle: distilled water + Tween-80",0 of 5
same,survivor count,"dose: 200.0 mg/kg/injection, schedule: Q01DX009 (ip), vehicle: distilled water + Tween-80",0 of 5
COc1cc(C(CC(C)=O)c2cc3c(cc2OC(C)=O)OCO3)cc(OC)c1OC (stereo not given) (tested in a mixture with another compound),T/C,"dose: 120.0 mg/kg/injection, schedule: Q01DX005 (ip), vehicle: saline with Tween-80",126 % of control
CCS(=O)(=O)Nc1cccc(Nc2c3cccc(C)c3nc3c(C)cccc23)c1OC,T/C,"dose: 1.4 mg/kg/injection, schedule: Q01DX009 (ip), vehicle: saline with Tween-80",126 % of control
same,T/C,"dose: 2.8 mg/kg/injection, schedule: Q01DX009 (ip), vehicle: saline with Tween-80",135 % of control
same,survivor count,[8],6 of 6
O=C(O)c1cc(N=C=S)ccc1-c1c2ccc(=O)cc-2oc2cc(O)ccc12,survivor count,[5],0 of 6
COc1cc(O)ccc1C(=S)SC,survivor count,[16],3 of 6
CCCCCCCC[N+]1(CC)CCCCC1,survivor count,[3],1 of 6
same,survivor count,[11],0 of 6
same,survivor count,[13],0 of 6
CC1(C)NC(=O)[C@]2(C[C@@H](OC(=O)c3ccccc3)C=C2C=O)O1,survivor count,[1],1 of 6
C=C1C(=O)OC2CC(C)C3CC(O)OC(O)C3(C)CC12 (stereo not given),survivor count,"dose: 6.25 mg/kg/injection, schedule: Q01DX009 (ip), vehicle: saline",4 of 6
same,survivor count,"dose: 12.5 mg/kg/injection, schedule: Q01DX009 (ip), vehicle: saline",2 of 6
same,survivor count,[6],3 of 6
same,survivor count,[7],0 of 6 (2×)
same,survivor count,[8],0 of 6 (2×)
same,survivor count,[9],0 of 6 (2×)
CCS/C(C#N)=C(/OC)c1ccccc1Cl,survivor count,[9],1 of 6
O=[N+]([O-])c1ccc(CS(=O)(=O)c2cccs2)o1,survivor count,[4],6 of 6
CN(C)/N=C/c1ccc(O)cc1,survivor count,[17],6 of 6
same,T/C,[14],128 % of control
same,survivor count,[14],4 of 6
O=C1C=CC(=Nc2cc(Br)c(O)c(Br)c2)C=C1,survivor count,"dose: 100.0 mg/kg/injection, schedule: Q01DX005 (ip), vehicle: saline",0 of 5
same,survivor count,"dose: 200.0 mg/kg/injection, schedule: Q01DX005 (ip), vehicle: saline",0 of 5
Cc1ccc(C)c(CN(CCO)CCO)c1,survivor count,"dose: 240.0 mg/kg/injection, schedule: Q01DX005 (ip), vehicle: saline",1 of 6
O=C(N1CCC2(CC1)SSC1(CCN(C(=O)C(F)(F)F)CC1)S2)C(F)(F)F,survivor count,[16],6 of 6
COc1c(CNC(=O)CCl)cc2[nH]c(C)cc2c1CNC(=O)CCl,T/C,[17],137 and 141 % of control
same,T/C,[10],141 % of control
same,T/C,[12],145 % of control
COc1cc2c(c(OC)c1OC)-c1ccc(SC)c(=O)cc1[C@@H](NC1OC(COC(C)=O)C(OC(C)=O)C(OC(C)=O)C1OC(C)=O)CC2 (stereo not given in full),T/C,"dose: 6.0 mg/kg/injection, schedule: Q01DX009 (ip), vehicle: other",134 % of control
same,T/C,"dose: 12.0 mg/kg/injection, schedule: Q01DX009 (ip), vehicle: other",142 % of control
same,T/C,"dose: 48.0 mg/kg/injection, schedule: Q01DX009 (ip), vehicle: other",129 % of control
same,T/C,"dose: 96.0 mg/kg/injection, schedule: Q01DX009 (ip), vehicle: other",128 % of control
COc1ccc2c(N)c3c4ccccc4cc[n+]3cc2c1OC,T/C,"dose: 12.5 mg/kg/injection, schedule: Q04DX003 (ip), vehicle: water",128 % of control
same,T/C,"dose: 25.0 mg/kg/injection, schedule: Q04DX003 (ip), vehicle: water",130 % of control
same,survivor count,"dose: 50.0 mg/kg/injection, schedule: Q04DX003 (ip), vehicle: distilled water + Tween-80",2 of 6
same,survivor count,"dose: 50.0 mg/kg/injection, schedule: Q04DX003 (ip), vehicle: water",2 of 6
same,survivor count,"dose: 100.0 mg/kg/injection, schedule: Q04DX003 (ip), vehicle: distilled water + Tween-80",0 of 6
same,survivor count,"dose: 200.0 mg/kg/injection, schedule: Q04DX003 (ip), vehicle: distilled water + Tween-80",0 of 6
same,survivor count,"dose: 400.0 mg/kg/injection, schedule: Q04DX003 (ip), vehicle: distilled water + Tween-80",0 of 6
COc1cc2c(cc1OC)NC(=O)C2,survivor count,"dose: 200.0 mg/kg/injection, schedule: Q04DX003 (ip), vehicle: saline with Tween-80",5 of 6
same,survivor count,[16],1 of 6
Nc1ccc[nH]c1=O,T/C,[13],125 [5 of 6 alive] and 133 % of control
same,survivor count,[15],5 of 6
